Measurements reported in PubChem BioAssay AID652259 (Drosophila RNAi Screening Center, 2013).
Aim: 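Genome-wide hunt for genes that control Wingless pathway activity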 (primary screen). System: Drosophila clone 8 imaginal disc epithelial cells. Knock-down reagent: long dsRNA against Drosophila genes. Challenge: pathway stimulated by co-transfected Wingless expression plasmid. Measured: 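Firefly luciferase from a tcf-site Wingless reporter, measured alongside co-transfected Renilla luciferase that tracks transfection; pathway stimulated by a Wingless plasmid; the firefly-to-Renilla ratio is not deposited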. Reading the numbers: firefly reporter light: higher = more Wg reporter light, before normalisation; Renilla control light: higher = more transfected or surviving cells. Call rule: 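Strong candidates differ from their plate mean by at least two out of four per-plate statistical tests; weak candidates meet just one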. Meaning of the calls: active = candidate regulator (raises or lowers reporter); inactive = not a candidate.
The screen tested about 22,000 reagents; shown is an unselected part of those that have a named target and a result. Of all reagents, 233 (1.1%) are marked active. 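Light values are raw, unnormalised plate reads; the ratio scores behind the reporter calls were not deposited.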 Reagents against one gene are numbered here. Names joined by + are all predicted targets of the reagent. Not stated in the record: the amount of reagent, the time to read-out, the dose of the treatment.

no.	gene	dsRNA no.	firefly reporter light, replicate 1	firefly reporter light, replicate 2	Renilla control light, replicate 1	Renilla control light, replicate 2	outcome
1	CG31804	1	6.62e5	7.30e5	3.03e5	89162	inactive
2	Dph1	1	3622		1796		inactive
3	CG12655	1	18076		10832		inactive
4	tup	1	10968		2520		inactive
5	mRpL12	1	4359		1373		inactive
6	CG5280	1	2251	10118	1735	4136	inactive
7	CG5280	2	1.06e6	6.44e5	3.94e5	3.83e5	inactive
8	hfw	1	13202		10841		inactive
9	Gycbeta100B	1	3045		1373		inactive
10	Gycbeta100B	2	2800		992		inactive
11	Gycbeta100B	3	3969	11952	2192	4843	inactive
12	Pen	1	6018		2113		inactive
13	SCAR	1	5261	11339	1056	4199	inactive
14	CG16989	1	28714		18133		inactive
15	RyR	1	2648	5398	652	2259	inactive
16	CG15333	1	13608		7072		inactive
17	CG15333	2	17484		7565		inactive
18	Drep1	1	7494		2329		inactive
19	CG9775	1	8805		3894		inactive
20	CG9775	2	4.62e5	5.18e5	1.28e5	1.07e5	inactive
21	sinu	1	4921		1498		inactive
22	Phyhd1	1	21393		4045		inactive
23	Takl2	1	16598		14722		inactive
24	CG8155	1	16661		2085		inactive
25	CG8155	2	2.69e5	2.52e5	1.39e5	1.13e5	inactive
26	trem	1	16870		4312		inactive
27	CG34320 (retired record)	1	4283		1760		inactive
28	Srp19	1	2456	7000	1353	4032	inactive
29	CG13607	1	25626		19641		inactive
30	CG33502 + CG32857 + CG32500	1	11419		7224		inactive
31	Manf	1	4295	7946	1728	2704	inactive
32	CG17192	1	6212		2748		inactive

Entries listed so far whose gene name starts with P or p:
gene	dsRNA no.	firefly reporter light, replicate 1	firefly reporter light, replicate 2	Renilla control light, replicate 1	Renilla control light, replicate 2	outcome
Pen	1	6018		2113		inactive
Phyhd1	1	21393		4045		inactive

Continued.
no.	gene	dsRNA no.	firefly reporter light, replicate 1	firefly reporter light, replicate 2	Renilla control light, replicate 1	Renilla control light, replicate 2	outcome
33	sqz	1	32221		4192		inactive
34	Vha100-5	1	2498	4955	1122	1920	inactive
35	CG41520	1	15847		8772		inactive
36	Task6	1	15371		3872		inactive
37	CG15059	1	21014		14512		inactive
38	CG6665	1	15659		4293		inactive
39	Or49b	1	7041		2640		inactive
40	Cpr92F	1	14962		4905		inactive
41	RpL22	1	28000		18409		inactive
42	RpL22	2	4.22e5	4.48e5	1.41e5	1.74e5	inactive
43	CG2059	1	18839		9837		inactive
44	CG34266	1	2150	8921	720	2661	inactive
45	CG2129	1	3270	6234	1143	1442	inactive
46	Pdss2	1	2631		971		inactive
47	Corp	1	1660	3637	604	1280	inactive
48	plx	1	14002		3067		inactive
49	plx	2	19834		4625		inactive
50	plx	3	5.64e5	7.04e5	1.74e5	1.59e5	inactive
51	mv	1	6755		2624		inactive
52	mv	2	4853		2224		inactive
53	CG11854	1	17760		13365		inactive
54	ETHR	1	37652		6720		inactive
55	Klp59D	1	4256	9977	771	3594	inactive
56	CG30058 + CG34235 + CG34312	1	14385		11784		inactive
57	Dup99B	1	4.72e5	4.56e5	2.07e5	2.15e5	inactive
58	kis	1	3479	12795	1688	3991	inactive
59	kis	2	1458	8464	704	3288	inactive
60	kis	3	7962		4679		inactive
61	CG7766	1	1952	4435	732	1636	inactive
62	CG31778	1	12384		4722		inactive
63	plu	1	4864		1193		inactive
64	CG4461	1	5585		2336		inactive
65	CG14043	1	2403	5905	772	1985	inactive
66	RanBPM	1	13411		2232		inactive
67	Osi13	1	9318		1619		inactive
68	CG32280	1	2819		1584		inactive
69	Drak	1	12185		6834		inactive
70	COX5B	1	3337	8400	763	2384	inactive
71	atilla	1	3605	9428	1465	4347	inactive
72	CG11865	1	2066	3609	1046	2247	inactive
73	Ugt302E1	1	11906		3968		inactive
74	LIMK1	1	2336	5660	916	1969	inactive
75	HLH4C	1	28824		18259		inactive
76	HLH4C	2	8.21e5	8.77e5	5.14e5	4.09e5	inactive
77	Scsalpha2	1	1917	6845	1041	2277	inactive
78	Drsl5	1	6501		3286		inactive
79	CG12995	1	19250		7408		inactive
80	CG14258	1	9546		3168		inactive
81	Cf2	1	3165	6448	483	674	inactive
82	CG11581	1	21881		10263		inactive
83	InR	1	39970		8432		inactive
84	CG31259	1	12202		2553		inactive
85	CG3788	1	2600	10049	804	3468	inactive
86	CG32221	1	2745		1260		inactive
87	hppy	1	6384		2211		inactive
88	hppy	2	6791		2928		inactive
89	hppy	3	5691		1532		inactive
90	eIF4E7	1	21020		15761		inactive
91	eIF4E7	2	17138		10652		inactive
92	cm + Inx7	1	1525	5095	715	1877	inactive
93	Socs36E	1	13874		4663		inactive
